From ChEMBL document CHEMBL3988442, “University of Dundee, Small-Polar-MMV Screening Library” (2021).

A: 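Whole-cell assay for inhibitors of Mycobacterium tuberculosis growth, labelled Cornell in the record; the read-out is not stated. The concentration is filed as 10 mM, unlikely as a test dose, so the dose is not known. Higher means stronger inhibition (inferred from two other growth screens of the library). Size under these conditions: about 53,000 compounds, about 900 of them at 50% or above in at least one test.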
B: 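Assay on Mycobacterium tuberculosis, filed only as a heat shock assay from Cornell; the read-out is not stated. The concentration is filed as 10 mM, unlikely as a test dose, so the dose is not known. Higher reads as stronger inhibition (inferred: compounds with an IC50 in retests scored well above the rest). Size under these conditions: about 69,000 compounds, about 930 of them at 50% or above in at least one test.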

Values are the deposited “Percent Effect”, in %. The controls that fix the scale are not given in the record; negative values are as filed. This is an unselected part of the compounds tested. A dash means the value is not listed here; it may have been measured.

compound	A	B
Cc1ccc(CC(=O)N2CCCC(c3cc(C)[nH]n3)C2)cn1 (configuration not stated)	19.76	1.832
COCC(=O)N1CCC(c2c(C(=O)N(C)C)sc3ncccc23)C1 (configuration not stated)	-20.11	-17.98
CC(C)n1ccc(C(=O)N2CCCC(n3cncn3)C2)n1 (configuration not stated)	12.82	1.99
[H][C@]12CNC[C@@]1(C(=O)N1CCN(c3ncccc3C#N)CC1)CN(C)C2	-4.017	16.17
CC(=O)NCCNC(=O)N(C)Cc1ccc2c(c1)OCCO2	0.7784	8.411
OC[C@@H](O)CN(CCC(F)(F)F)c1ncccn1	-	6.864
COc1ccc(F)cc1S(=O)(=O)N1CCC(Oc2ccc(Cl)cn2)CC1	39.51	-0.4336
Cc1cc(N(C)C)nc(N2CCN(C(C)c3nc(C)no3)CC2)n1 (configuration not stated)	-19.3	19.5
CC(=O)NCc1cncc(C2CCCN2C2CCOCC2)n1 (configuration not stated)	-6.68	11.2
CC(C)N(C)Cc1cncc2c1CCN(C(=O)c1ccccc1F)C2.Cl.Cl	4.25	-40.15
CC(C)CNC[C@H]1COCc2nc3cccnc3n21	-5.906	-1.301
CCOc1ccc(N(C)S(=O)(=O)c2c[nH]c(C(C)C)n2)cc1	-19.53	-16.7
Cn1c(CN2CCC(O)CC2)nnc1C1CCCN(c2ccncc2)C1 (configuration not stated)	-	27.86
Cn1cnnc1C1CCCN(C(=O)NCCn2ccnc2)C1 (configuration not stated)	-	0.4682
Cn1cnnc1C1CCCN(C(=O)c2cc(C3CC3)on2)C1 (configuration not stated)	0.7243	-0.4901
Cc1[nH]ncc1CCCNC(=O)Nc1ccc(S(C)(=O)=O)nc1	-21.71	-0.4306
Cc1cc(C)c(CNC(=O)NCC(O)COc2ccccc2)c(=O)[nH]1 (configuration not stated)	14.1	-4.231
NC(=O)c1c(-c2ccc(Cl)cc2Cl)csc1NC(=O)CCCC(=O)O	-1.973	-5.782
COCc1nc(C(=O)NS(=O)(=O)c2cc(Br)ccc2C)cs1	-	8.462
CCNC(=O)N1CCC2(C1)c1ccccc1S(=O)(=O)N2CCC(C)C (configuration not stated)	23.89	25.06
COCC(=O)N1CCC2(CC1)CCN(Cc1ccccn1)C2=O.O=C(O)C(F)(F)F	-0.8484	-4.68
O=C(O)C(F)(F)F.O=C(O)C(F)(F)F.[H][C@@]12CCN(Cc3cccnc3)C[C@]1(C(=O)N1CCCO1)CCO2	18.63	-32.82
[H][C@@]12C[C@H](C(=O)NCc3ccco3)CN(C(=O)c3ccco3)[C@]1([H])CCO2	14.13	-5.953
Cc1ccc(CNC(=O)c2ccc(=O)n(C)n2)c(OC2CCCC2)c1	15.83	25.11
[H][C@]12CC[C@@]3(N=C(CC)NC3=O)[C@@]1([H])CN(C(=O)Nc1ccc(F)cc1)C2	9.002	10.13
O=C1CSc2ccccc2N1CC(=O)N1CCCCC1c1nccs1 (configuration not stated)	-5.401	95.25
Cc1ccc(C(=O)NCc2ccnc(C3CCCOC3)n2)s1 (configuration not stated)	2.557	-16.36
COCCN1CCN(CC(=O)N(C)Cc2ccc(F)cc2)CC1C (configuration not stated)	-15.85	-19.3
CCC1(CC)Cc2ccccc2-c2nc(NCCCO)[nH]c(=O)c21	39.1	0.6588
COc1ccc(C(=O)Nc2ccc3c(c2)C(=O)NC3)cc1Br	6.038	4.364
O=C(O)C(F)(F)F.[H][C@@]12CN(c3cc(OC)ncn3)C[C@H](C(=O)NCC3CC3)[C@]1([H])CCO2	2.572	-37.92
CCOC1CCN(C(=O)NCCN(C)C(=O)OC(C)(C)C)CC1	-10.01	3.529
Cc1ccccc1Cn1nnc2cc3c(cc2c1=O)OCCO3	17.7	-9.095
[H][C@]12CC[C@]([H])(CN(C(=O)c3csc(Cc4ccccc4)n3)C1)N(C)C2=O	25.53	7.116
CCN(Cc1cccc(F)c1)S(=O)(=O)N1CCOCC1	21.48	-3.556
CC(=O)N1CCCCC1c1nc(C)cc(-c2ccccc2C(=O)O)n1 (configuration not stated)	10.66	-1.548
CC(C)Oc1cccc(F)c1C(C(=O)O)N1CCCC1 (configuration not stated)	-27.65	18.9
CC(=O)Nc1ncc(S(=O)(=O)N2CCN(C3CCCCC3)CC2)s1	-7.396	-25.84
CCc1nc(CN2CCCN(C(=O)c3ccnc(C)n3)CC2)cs1	-	-21.55
COC(=O)C(C)(C)NC(=O)c1cc(COc2ccccc2OC)[nH]n1	-55.32	6.174
CC(c1nc(C2CC2)no1)N1CCN(Cc2ccccc2)CC1 (configuration not stated)	2.279	10.21
[H][C@@]12CS(=O)(=O)C[C@]1([H])N(Cc1nc3c(s1)CCCC3)CCN2CCOC	-12.99	-11.01
COC(=O)c1cccn1C1CCN(Cc2ccccc2)CC1	25.08	30.28
CC1CCC(N2CCC(NS(=O)(=O)CCOC(C)C)CC2)CC1 (configuration not stated)	34.11	-7.866